Laboratory results taken from US20260256913A1 (UTC TYHERAPEUTICS SHANGNAI, published 2026).
These are yes or no findings as the source states them, for the method shown. Some binding calls cover weakened binding; strength is not graded here.

Sequences of proteins named here, by UniProt entry; tags and fusion partners are left off. A change or cut given only in a name is not applied to a line headed by its entry.
UniProt P25942: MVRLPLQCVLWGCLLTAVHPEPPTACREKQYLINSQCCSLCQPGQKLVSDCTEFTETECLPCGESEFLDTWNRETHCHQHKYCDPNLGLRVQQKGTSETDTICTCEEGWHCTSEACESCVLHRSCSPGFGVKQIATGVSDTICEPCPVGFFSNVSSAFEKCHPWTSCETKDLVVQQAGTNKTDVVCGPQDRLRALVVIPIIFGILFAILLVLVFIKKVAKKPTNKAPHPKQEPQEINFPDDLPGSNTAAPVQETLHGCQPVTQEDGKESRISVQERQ

Biological target: T1, CD40-Fc recombinant protein (human, UniProt P25942 21-193)
T1 construct: also called CD40-Fc protein; CD40-Fc antigen; not shown: Fc part; detected with anti-human IgG Fc antibody
Assay: FACS staining, CAR-T cells of donor ND020 co-expressing LACO (FIG. 52)

B1: LACO-A4D11C2828 (protein)
chain: QLQLQESGPGLLKPSETLSLTCTVSGGSISSPGYYGGWIRQPPGKGLEWIGSIYKSGSTYHNPSLKSRVTISVDTSKNQFSLKLSSVTAADTAVYYCTRPVVRYFGWFDPWGQGTLVTVSSASGGGGSGGGGSGGGGSAIQLTQSPSSLSASVGDRVTITCRASQGISSALAWYQQKPGKAPKLLIYDASNLESGVPSRFSGSGSGTDFTLTISSLQPEDFATYYCQQFNSYPTFGQGTKVEIKRTEIEVMYPPPYLDNEKSNGTIIHVKGKHLCPSPLFPGPSKPFWVLVVVGGVLACYSLLVTVAFIIFWVRSKRSRLLHSDYMNMTPRRPGPTRKHYQPYAPPRDFAAYRS
In the case of B1, the binding is reported as “binds”.
